Test results reported in PMC10589313 (Nature Communications, 2023).
Values joined by “and” are separate entries in the source; they are usually repeats but may differ in a detail not shown here. Equal entries are not always repeated. This continues a long series; more values of the same kind are listed elsewhere.

Amino acid sequences for entries named in this document (tags omitted).
UniProt Q9H3N8, whole entry N147Y: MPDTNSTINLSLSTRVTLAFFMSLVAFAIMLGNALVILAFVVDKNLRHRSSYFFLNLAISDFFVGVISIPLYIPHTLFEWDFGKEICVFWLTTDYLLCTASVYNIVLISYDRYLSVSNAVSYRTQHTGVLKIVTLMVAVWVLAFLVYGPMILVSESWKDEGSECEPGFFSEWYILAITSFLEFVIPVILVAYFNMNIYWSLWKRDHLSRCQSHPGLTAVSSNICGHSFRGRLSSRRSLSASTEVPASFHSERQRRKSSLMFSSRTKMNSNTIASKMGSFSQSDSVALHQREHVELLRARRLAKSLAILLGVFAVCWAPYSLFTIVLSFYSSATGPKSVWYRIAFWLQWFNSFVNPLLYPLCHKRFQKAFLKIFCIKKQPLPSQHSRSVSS
UniProt Q9H3N8, whole entry E182A: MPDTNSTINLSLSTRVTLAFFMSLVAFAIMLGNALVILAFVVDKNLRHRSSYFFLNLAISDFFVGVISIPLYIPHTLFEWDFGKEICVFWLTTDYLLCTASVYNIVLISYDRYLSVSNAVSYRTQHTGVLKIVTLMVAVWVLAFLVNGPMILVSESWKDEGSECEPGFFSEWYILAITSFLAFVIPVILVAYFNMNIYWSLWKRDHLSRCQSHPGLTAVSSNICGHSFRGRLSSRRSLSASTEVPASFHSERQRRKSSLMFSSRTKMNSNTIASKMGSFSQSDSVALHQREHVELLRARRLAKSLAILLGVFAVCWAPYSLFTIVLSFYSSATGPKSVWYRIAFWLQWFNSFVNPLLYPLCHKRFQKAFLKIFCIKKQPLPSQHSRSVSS
UniProt Q9H3N8, whole entry E182N: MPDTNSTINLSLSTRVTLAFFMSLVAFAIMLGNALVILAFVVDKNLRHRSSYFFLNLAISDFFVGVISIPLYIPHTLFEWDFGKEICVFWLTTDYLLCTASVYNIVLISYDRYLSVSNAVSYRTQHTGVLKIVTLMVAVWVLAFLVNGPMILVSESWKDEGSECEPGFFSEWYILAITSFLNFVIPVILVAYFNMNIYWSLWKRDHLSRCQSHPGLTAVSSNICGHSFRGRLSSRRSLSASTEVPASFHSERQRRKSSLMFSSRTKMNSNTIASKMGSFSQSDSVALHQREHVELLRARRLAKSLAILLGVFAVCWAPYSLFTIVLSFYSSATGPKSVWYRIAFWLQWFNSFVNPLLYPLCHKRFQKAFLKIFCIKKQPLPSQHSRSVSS
UniProt Q9H3N8, whole entry F344A: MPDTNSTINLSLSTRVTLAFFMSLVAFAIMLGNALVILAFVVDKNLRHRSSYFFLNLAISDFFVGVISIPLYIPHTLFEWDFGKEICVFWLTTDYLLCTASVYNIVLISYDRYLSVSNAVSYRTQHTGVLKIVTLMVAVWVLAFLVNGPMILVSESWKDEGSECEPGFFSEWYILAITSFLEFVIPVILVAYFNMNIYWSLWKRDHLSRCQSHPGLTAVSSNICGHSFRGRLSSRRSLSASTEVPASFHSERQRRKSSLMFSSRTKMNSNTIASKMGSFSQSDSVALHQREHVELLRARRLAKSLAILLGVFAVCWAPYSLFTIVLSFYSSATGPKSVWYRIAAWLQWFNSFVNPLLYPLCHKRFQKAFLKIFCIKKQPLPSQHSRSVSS
UniProt Q9H3N8, whole entry F344I: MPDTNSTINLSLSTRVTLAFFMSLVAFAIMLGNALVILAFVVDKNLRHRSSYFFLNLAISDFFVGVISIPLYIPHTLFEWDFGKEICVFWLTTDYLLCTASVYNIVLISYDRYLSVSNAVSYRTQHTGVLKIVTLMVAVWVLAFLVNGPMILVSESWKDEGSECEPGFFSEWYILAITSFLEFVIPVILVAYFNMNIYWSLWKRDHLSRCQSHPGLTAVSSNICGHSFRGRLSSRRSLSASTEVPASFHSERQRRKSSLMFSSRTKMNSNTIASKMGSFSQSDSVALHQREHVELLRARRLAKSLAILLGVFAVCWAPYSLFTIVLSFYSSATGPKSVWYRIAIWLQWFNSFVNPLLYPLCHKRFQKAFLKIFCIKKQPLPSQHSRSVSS
UniProt Q9H3N8, whole entry Q347A: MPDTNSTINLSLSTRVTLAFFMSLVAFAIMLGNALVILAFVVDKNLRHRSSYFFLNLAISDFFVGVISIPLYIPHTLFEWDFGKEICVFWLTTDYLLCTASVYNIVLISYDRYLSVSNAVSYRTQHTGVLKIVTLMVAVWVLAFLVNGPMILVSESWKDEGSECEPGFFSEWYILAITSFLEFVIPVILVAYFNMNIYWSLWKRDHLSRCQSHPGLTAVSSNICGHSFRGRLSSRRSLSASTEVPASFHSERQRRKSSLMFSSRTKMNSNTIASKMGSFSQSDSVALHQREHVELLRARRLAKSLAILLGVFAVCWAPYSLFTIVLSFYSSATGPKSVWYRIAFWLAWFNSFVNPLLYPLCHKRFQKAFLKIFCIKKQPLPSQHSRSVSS
UniProt Q9H3N8, whole entry Q347G: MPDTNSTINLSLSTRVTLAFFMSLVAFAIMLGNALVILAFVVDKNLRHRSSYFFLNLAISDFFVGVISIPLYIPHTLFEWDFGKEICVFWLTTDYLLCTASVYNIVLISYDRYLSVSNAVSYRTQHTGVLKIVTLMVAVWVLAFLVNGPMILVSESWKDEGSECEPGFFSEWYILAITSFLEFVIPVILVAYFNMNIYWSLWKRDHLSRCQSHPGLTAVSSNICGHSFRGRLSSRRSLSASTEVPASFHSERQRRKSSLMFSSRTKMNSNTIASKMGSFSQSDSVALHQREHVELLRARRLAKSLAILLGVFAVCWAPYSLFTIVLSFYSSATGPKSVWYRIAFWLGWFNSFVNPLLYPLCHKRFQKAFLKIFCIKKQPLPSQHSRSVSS
UniProt Q9H3N8, whole entry W348A: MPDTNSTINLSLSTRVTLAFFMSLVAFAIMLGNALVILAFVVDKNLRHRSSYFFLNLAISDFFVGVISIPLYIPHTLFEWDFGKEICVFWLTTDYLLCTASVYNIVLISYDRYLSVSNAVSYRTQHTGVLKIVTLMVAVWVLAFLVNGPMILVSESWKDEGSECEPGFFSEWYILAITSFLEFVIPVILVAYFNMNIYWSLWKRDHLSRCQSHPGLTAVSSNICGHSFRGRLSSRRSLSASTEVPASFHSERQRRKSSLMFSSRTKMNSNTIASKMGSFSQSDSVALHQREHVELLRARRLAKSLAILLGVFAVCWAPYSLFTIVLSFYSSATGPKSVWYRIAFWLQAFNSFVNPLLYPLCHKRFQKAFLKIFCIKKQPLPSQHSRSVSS
UniProt Q9H3N8, whole entry W348Y: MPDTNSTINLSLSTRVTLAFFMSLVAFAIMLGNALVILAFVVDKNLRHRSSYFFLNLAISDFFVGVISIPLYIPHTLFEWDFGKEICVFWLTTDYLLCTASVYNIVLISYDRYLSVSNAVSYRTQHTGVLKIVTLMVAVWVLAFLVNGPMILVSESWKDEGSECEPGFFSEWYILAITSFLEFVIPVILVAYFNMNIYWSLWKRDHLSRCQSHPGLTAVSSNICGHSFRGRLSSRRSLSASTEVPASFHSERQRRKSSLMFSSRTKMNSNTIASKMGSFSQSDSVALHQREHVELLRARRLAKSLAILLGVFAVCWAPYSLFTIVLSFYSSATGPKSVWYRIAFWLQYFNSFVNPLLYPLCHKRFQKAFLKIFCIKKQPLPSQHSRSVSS

Legend:
Format in all cases: cell-based
[1] = target: T1, human H4R N147Y mutant (Homo sapiens, UniProt Q9H3N8, N147Y); assay: TGFα shedding assay, H4R N147Y mutant
T1 construct: a mutant H4R (human, full-length, and untagged); expressed in transfected cells; host or cells: HEK293A
Method: (§1) The mutants were prepared using the primers listed in Supplementary Table 2. […] The chimeric Gαq/i1 subunit comprises the Gαq backbone and Gαi1-derived six-amino acid C-terminus and couples with Gi-coupled H4R but induces a Gq-dependent TGFα shedding response. After culturing for 1 day and incubating at 37 °C in a 5% CO2 incubator, the transfected cells were harvested by trypsinization, neutralized with Dulbecco’s modified Eagle’s medium containing 10% fetal calf serum (FCS) and penicillin–streptomycin, washed once with Hank’s balanced salt solution (HBSS) containing 5 mM of HEPES (pH 7.4), and resuspended in 6 mL of the HEPES-containing HBSS. The cell suspension was seeded into a 96-well plate at a volume of […] per well (typically, 48 wells per transfected cells) and incubated for 30 min in the CO2 incubator. Test compounds (10×, diluted in 0.01% BSA and 5 mM of HEPES-containing HBSS, […] volume) were added to duplicate wells and incubated for 1 h. After centrifugation, the conditioned medium ([…]) was transferred to an empty 96-well plate. AP reaction solution [10 mM of p-nitrophenylphosphate (p-NPP), 120 mM of Tris–HCl (pH 9.5), 40 mM of NaCl, and 10 mM of MgCl2] was dispensed into the cell culture plates and plates containing conditioned media ([…]). Absorbance was measured at 405 nm before and after a 1-h incubation period at 25 °C using a microplate reader (iMark™ Microplate Absorbance Reader; BioRad). Ligand-induced AP-TGFα release was calculated as previously described. The vehicle-treated AP-TGFα release signal was set as a baseline unless otherwise specified. AP-TGFα release signals were fitted with a four-parameter sigmoidal concentration-response curve, from which EC50 and Emax values were obtained, using GraphPad Prism 9 software (GraphPad Prism). Negative values of logarithmically transformed EC50 values (pEC50) were used to calculate the mean and standard error of independent experiments.
(§2) All functional study data were analyzed using Prism 9 (GraphPad) and are presented as mean ± standard error of the mean (SEM) of three independent experiments. Statistical analyses were performed using Prism 9 (GraphPad) with one-way analysis of variance followed by Dunnett’s post-hoc test. Values with p < 0.05 are considered statistically significant.

[2] = target: T2, human H4R E182A mutant (Homo sapiens, UniProt Q9H3N8, E182A); assay: TGFα shedding assay, H4R E182A mutant
T2 construct: a mutant H4R (human, full-length, and untagged); expressed in transfected cells; host or cells: HEK293A
Method: as §1, §2

[3] = target: T3, human H4R E182N mutant (Homo sapiens, UniProt Q9H3N8, E182N); assay: TGFα shedding assay, H4R E182N mutant
T3 construct: a mutant H4R (human, full-length, and untagged); expressed in transfected cells; host or cells: HEK293A
Method: as §1, §2

[4] = target: T4, human H4R F344A mutant (Homo sapiens, UniProt Q9H3N8, F344A); assay: TGFα shedding assay, H4R F344A mutant
T4 construct: a mutant H4R (human, full-length, and untagged); expressed in transfected cells; host or cells: HEK293A
Method: as §1, §2

[5] = target: T5, human H4R F344I mutant (Homo sapiens, UniProt Q9H3N8, F344I); assay: TGFα shedding assay, H4R F344I mutant
T5 construct: a mutant H4R (human, full-length, and untagged); expressed in transfected cells; host or cells: HEK293A
Method: as §1, §2

[6] = target: T6, human H4R Q347A mutant (Homo sapiens, UniProt Q9H3N8, Q347A); assay: TGFα shedding assay, H4R Q347A mutant
T6 construct: a mutant H4R (human, full-length, and untagged); expressed in transfected cells; host or cells: HEK293A
Method: as §1, §2

[7] = target: T7, human H4R Q347G mutant (Homo sapiens, UniProt Q9H3N8, Q347G); assay: TGFα shedding assay, H4R Q347G mutant; details: Histamine (M) -7, raw replicates
T7 construct: a mutant H4R (human, full-length, and untagged); expressed in transfected cells; host or cells: HEK293A
Method: The mutants were prepared using the primers listed in Supplementary Table 2. […] The chimeric Gαq/i1 subunit comprises the Gαq backbone and Gαi1-derived six-amino acid C-terminus and couples with Gi-coupled H4R but induces a Gq-dependent TGFα shedding response. After culturing for 1 day and incubating at 37 °C in a 5% CO2 incubator, the transfected cells were harvested by trypsinization, neutralized with Dulbecco’s modified Eagle’s medium containing 10% fetal calf serum (FCS) and penicillin–streptomycin, washed once with Hank’s balanced salt solution (HBSS) containing 5 mM of HEPES (pH 7.4), and resuspended in 6 mL of the HEPES-containing HBSS. The cell suspension was seeded into a 96-well plate at a volume of […] per well (typically, 48 wells per transfected cells) and incubated for 30 min in the CO2 incubator. Test compounds (10×, diluted in 0.01% BSA and 5 mM of HEPES-containing HBSS, […] volume) were added to duplicate wells and incubated for 1 h. […] Absorbance was measured at 405 nm before and after a 1-h incubation period at 25 °C using a microplate reader (iMark™ Microplate Absorbance Reader; BioRad). Ligand-induced AP-TGFα release was calculated as previously described. […]
All functional study data were analyzed using Prism 9 (GraphPad) and are presented as mean ± standard error of the mean (SEM) of three independent experiments. […]

[8] = target: T8, human H4R W348A mutant (Homo sapiens, UniProt Q9H3N8, W348A); assay: TGFα shedding assay, H4R W348A mutant
T8 construct: a mutant H4R (human, full-length, and untagged); expressed in transfected cells; host or cells: HEK293A
Method: as §1, §2

[9] = target: T9, human H4R W348Y mutant (Homo sapiens, UniProt Q9H3N8, W348Y); assay: TGFα shedding assay, H4R W348Y mutant
T9 construct: a mutant H4R (human, full-length, and untagged); expressed in transfected cells; host or cells: HEK293A
Method: as §1, §2

[10] = Histamine (M) -8, raw replicates
[11] = Histamine (M) -9, raw replicates
[12] = Histamine (M) -10, raw replicates
[13] = Histamine (M) -5, raw replicates
[14] = Histamine (M) -6, raw replicates
[15] = Histamine (M) -7, raw replicates

`NCCc1c[nH]cn1` [Histamine, histamine] was tested, and the Shedding assay [1, 10] was 2.314 and 0.9657 and 0.6398 and 0.6078 and -0.9168 and -2.246 and 0.06933 and 1.443 and 1.999, the Shedding assay [1, 11] was 0.4611 and -0.4229 and -0.9874 and -0.3819 and -0.892 and -2.342 and -0.7097 and -1.522 and -0.7838 and the Shedding assay [1, 12] was -0.3603 and -1.895 and -1.262 and -0.19 and -1.83 and -2.274 and -0.5814 and 0.8897 and 0.6654. For the same molecule, the Shedding assay [2, 13] was 1.328 and 5.307 and 1.357 and 5.178 and 3.4 and 3.189 and -3.397 and -2.51 and -6.211, the Shedding assay [2, 14] was -1.637 and 4.664 and -0.3924 and 3.833 and 0.8024 and 4.565 and -4.444 and -0.8777 and -4.665 and the Shedding assay [2, 15] was -3.2107 and 5.979 and -2.629 and 1.617 and -2.7 and 2.487 and -4.918 and -0.2054 and -16.7918. The Shedding assay [2, 10] was -7.451 and 4.305 and -4.84 and 2.227 and 0.4778 and 1.747 and -4.735 and -2.8754 and -2.8, the Shedding assay [2, 11] was -9.941 and 4.031 and -3.258 and 1.3455 and 0.3468 and 1.538 and -10.5794 and -1.643 and -1.68 and the Shedding assay [2, 12] was 0.3311 and 3.869 and -1.359 and 0.9543 and 0.691 and 0.04371 and -5.087 and 0.6903 and -0.6579. For the same molecule, the Shedding assay [3, 13] was 2.283 and 0.3446 and -0.7988 and 1.144 and 1.489 and 0.4153 and -0.269 and 1.255 and 1.07, the Shedding assay [3, 14] was 1.4011 and 1.681 and -0.5177 and -0.1049 and 1.1703 and 0.4282 and -1.63 and -0.5758 and -6.389 and the Shedding assay [3, 15] was -1.167 and -1.6961 and -0.3592 and 0.8974 and -2.519 and -1.404 and -0.7728 and -0.31 and -3.26. The Shedding assay [3, 10] was -2.792 and -1.087 and -2.247 and 0.5182 and -3.215 and -0.05429 and -2.711 and -1.032 and -0.8917, the Shedding assay [3, 11] was -2.095 and -1.621 and -1.3247 and -1.362 and -3.388 and -0.4552 and -4.619 and -0.5505 and 2 and the Shedding assay [3, 12] was -2.037 and -0.5594 and -1.805 and 0.7761 and -1.742 and 0.02137 and -1.808 and 0.1874 and 0.3802. The Shedding assay [4, 13] was 0.5912 and 0.4542 and 2.3949 and -3.641 and -1.642 and -2.1381 and -0.7298 and -3.314 and -1.138, the Shedding assay [4, 14] was 0.1401 and -1.0399 and -8.5597 and -5.6623 and -2.241 and -2.6059 and 0.3076 and -1.534 and -0.8996 and the Shedding assay [4, 15] was 0.4346 and -1.003 and -7.483 and -3.284 and -3.011 and -4.028 and -0.255 and -1.709 and -2.171. The Shedding assay [4, 10] was -1.431 and -1.551 and 4.515 and -1.339 and -4.788 and -2.41 and -1.418 and -1.409 and -2.765, the Shedding assay [4, 11] was -4.473 and 0.21 and 3.934 and -3.2 and -2.186 and -3.849 and -2.339 and -2.54 and -2.379 and the Shedding assay [4, 12] was -2.711 and 0.6997 and 7.8841 and -3.046 and -3.762 and -2.41 and -1.549 and -0.7743 and -2.561. The Shedding assay [5, 13] was -0.902 and -0.07517 and -1.082 and -2.037 and -2.467 and -0.7903 and -2.85 and -2.964 and -2.035, the Shedding assay [5, 14] was -4.329 and -2.061 and -2.965 and -2.333 and -3.283 and -2.172 and -3.151 and -2.581 and -2.271 and the Shedding assay [5, 15] was -3.025 and -1.938 and -3.417 and -3.365 and -2.54 and -2.233 and -3.36 and -5.247 and -2.2344. The Shedding assay [5, 10] was -2.0091 and -4.306 and -1.2425 and -4.421 and -2.437 and -3.33 and -3.3208 and -4.423 and -2.3971, the Shedding assay [5, 11] was -3.448 and -0.4831 and -0.3343 and -1.984 and -3.095 and -2.916 and -2.654 and -9.357 and -4.253 and the Shedding assay [5, 12] was -3.113 and -3.215 and -0.2142 and -3.451 and -2.531 and -1.188 and -2.002 and -5.836 and -1.4936. For the same molecule, the Shedding assay [6, 13] was 10.8027 and 9.03 and 9.675 and 13.1375 and 8.746 and 6.385 and 8.391 and 8.279 and 8.707, the Shedding assay [6, 14] was 4.8543 and 6.513 and 5.17 and 9.737 and 4.517 and 2.289 and 4.07 and 4.748 and 4.438 and the Shedding assay [6, 15] was 1.146 and 0.6921 and -0.02355 and 1.969 and 0.4712 and -0.1317 and -0.8522 and -0.5678 and 0.5687. The Shedding assay [6, 10] was -0.2074 and -2.115 and -0.1521 and 1.236 and -1.238 and -0.7929 and -1.557 and -2.637 and -0.05317, the Shedding assay [6, 11] was 0.2803 and -1.318 and 0.05247 and 0.2039 and -3.113 and -1.297 and -0.5157 and -2.308 and -0.4963 and the Shedding assay [6, 12] was 0.8267 and -3.901 and 1.854 and 1.518 and -2.504 and -1.099 and 0.6286 and -2.392 and -0.1229. The Shedding assay [7] was -0.01685 and -1.089 and 2.702 and -1.376 and 1.055 and -0.05576 and -0.04058 and -11.1736, the Shedding assay [8, 13] was -1.057 and -1.728 and -1.2585 and -3.089 and -1.722 and -4.5 and -3.352 and -1.3761 and -8.25 and the Shedding assay [8, 14] was -2.292 and -2.489 and -0.6216 and -2.991 and -0.08349 and -0.2948 and -2.144 and 0.9549 and -2.963. For the same molecule, the Shedding assay [8, 15] was -1.516 and -1.642 and -0.6932 and -1.293 and -0.9031 and 0.6174 and -1.2265 and 0.5412 and -0.9522, the Shedding assay [8, 10] was -1.124 and -1.667 and -0.8149 and -0.3537 and 0.01935 and -0.04211 and -1.625 and 0.2255 and -0.6824 and the Shedding assay [8, 11] was -2.158 and -4.533 and -0.9578 and -1.6056 and -5.905 and 0.1779 and -1.472 and -4.38 and -0.2096. The Shedding assay [8, 12] was 0.08794 and -2.963 and 0.4861 and 0.4455 and -4.815 and 0.1242 and -0.1099 and -3.399 and 0.01815, the Shedding assay [9, 13] was 4.534 and 3.03 and 6.089 and 6.27 and 3.1019 and 5.039 and 7.524 and 2.754 and 7.0944 and the Shedding assay [9, 14] was -0.1364 and -0.4628 and -0.7151 and 0.9647 and 4.211 and 2.064 and 2.4 and 3.819 and -1.068. The Shedding assay [9, 15] was -1.983 and -1.769 and -11.5329 and -1.638 and 2.052 and -16.5326 and -0.3873 and 1.408 and -20.9627, the Shedding assay [9, 10] was -1.851 and -3.398 and -10.5867 and -0.4897 and 1.737 and -11.9992 and -0.8184 and 1.351 and -10.3825 and the Shedding assay [9, 11] was -1.681 and -1.637 and -3.976 and -1.436 and 1.388 and -5.965 and -2.874 and 1.724 and -5.97. For the same molecule, the Shedding assay [9, 12] was -3.023 and 0.1816 and -1.235 and -2.84 and 2.309 and -0.4417 and -4.659 and 1.259 and -2.736.
